Reference: PubChem BioAssay AID1794845 (National Center for Advancing Translational Sciences (NCATS), 2023)
Among all 6,900 compounds or so, fewer than 10 were called active. Calls come from the whole dose curve; as a rule, active = well fitted curve in the direction sought with a large enough effect; inconclusive = small, poorly fitted or top-dose-only effect, or another doubt; inactive = no such curve, though single readings can be large or run the other way. The list shows a part of the results.

Chains of the proteins cited; added tags and fusions are not shown. Lines headed by an entry give the natural chain unless they say otherwise; changes in a name come on top.
UniProt C7C422: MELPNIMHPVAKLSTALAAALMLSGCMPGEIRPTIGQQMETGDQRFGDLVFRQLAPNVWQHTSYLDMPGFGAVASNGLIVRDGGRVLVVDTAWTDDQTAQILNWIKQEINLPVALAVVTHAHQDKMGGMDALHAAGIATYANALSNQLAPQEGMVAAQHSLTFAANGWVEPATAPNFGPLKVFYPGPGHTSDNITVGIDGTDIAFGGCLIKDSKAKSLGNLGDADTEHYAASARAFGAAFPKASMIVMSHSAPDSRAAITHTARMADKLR

target: Metallo-beta-lactamase type 2 (Klebsiella pneumoniae) (UniProt C7C422); test: qHTS to identify inhibitors of the New Delhi Metallo-beta-lactamase (NDM): primary screen against the NCATS Gemini Collection; conditions: NDM-1 enzyme, meropenem hydrolysis, absorbance 300 nm; at 38.4 µM (top of the series) unless noted; note: % of control where 0% means no effect
How it was run: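 Meropenem hydrolysis (50 uM final) by 2 nM NDM-1 read as 300 nm absorbance after 30 min, following >30 min compound–enzyme preincubation in HEPES pH 7.0 with 1 uM ZnSO4 and 0.01% Tween20.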

Activity % (negative = inhibition), inactive:
NC(=O)NCC(=O)N1CCc2cc(S(=O)(=O)NCc3cccs3)ccc2C1 7.6%
CN(Cc1ccc(OC(F)(F)F)cc1)Cc1cccc(C(F)(F)F)c1 60.6%
O=C(NC[C@H]1OC[C@@H](NCc2cccnc2)[C@@H]1O)N1CCOCC1 29.6% [at 57.5 µM]
O=C1CC2(CCN(C(=O)c3ccc(Cl)cc3)CC2)Oc2cc(Cl)ccc21 1.59%
Cc1cccc(C(=O)N2CCOC(CCCc3ccccc3)C2)n1 (stereo not drawn) 3.72%
O=C(Nc1ccc2c(c1)CN(CCc1ccc(F)cc1)C(=O)CO2)c1c(F)cccc1F 2.48%
O=C(CCc1ccccc1)N1CCC(Cc2nncn2-c2ccccc2)C1 (stereo not drawn) -2.79%
CN(CCNC(=O)C1CCCCC(=O)N1Cc1ccccc1)C1CCCCC1 (stereo not drawn) -0.859%
CCc1cc(=O)n(CC(=O)NCCc2ccc(Cl)cc2)c(N2CCOCC2)n1 3.09%
CN1[C@H](C(=O)O)C[C@H](C(=O)NCC2(CO)CCCC2)[C@@H]1c1ccccc1F 11.6%
COc1ccc(NC(=O)COc2ccc(NC(=O)C3CC3)cn2)cc1 -3.27%
COc1cccc(CN2CCN(C(=O)c3cnc4ccccn4c3=O)CC2=O)c1 14.3%
N#Cc1ccc(C(=O)Nc2ccc(=O)n3c2[C@@H]2C[C@@H](CN(C(=O)c4ccc(F)cc4)C2)C3)cc1 14.5%
CC(C)N1CCN(C(=O)c2cc3cn(C4CC4)cc3s2)CC1 9.44%
CN1CCN(C[C@@H]2CN(C(=O)CCCc3cccs3)C[C@@H]2CO)CC1 -0.194%
Cc1ccc(C)c(C(=O)N[C@@H]2CN(c3ccncn3)C[C@H]2CO)c1 -0.121%
O=C(COc1ccccc1)N[C@H]1CO[C@H]2[C@@H]1OC[C@@H]2n1nnnc1Oc1ccc2c(c1)OCO2 3.43%
COc1ccc(C(=O)N[C@H]2CO[C@H]3[C@@H]2OC[C@@H]3Nc2nccc(-c3cccs3)n2)cc1 1.61%
O=C(NC[C@H]1OC[C@@H](NC2CCOCC2)[C@@H]1O)N1CCOCC1 -2.2% [at 57.5 µM]
O=C([C@@H]1C[C@H](Oc2ccccc2)CN1C(=O)Nc1ccccc1F)N1CCOCC1 20.7%
Cn1nc(C2CCN(C(=O)NCc3ccccc3)CC2)c2c1CCOC2 -1.25%
CCCCCC(=O)N1CC[C@@H](CC(=O)N(C)CC#N)[C@@H](CC)C1 0.472% [at 57.5 µM]
O=C(c1ccc(=O)[nH]n1)N1CCCC(c2ccn[nH]2)C1 (stereo not drawn) 2.53%
CN(C)S(=O)(=O)N1CCOCCNC(=O)[C@@H]2CCC[C@@H]21 9.52%
O=C(NCc1ccc(F)cc1)c1ccc(N2CC3CC(C2)[C@H]2CCCC(=O)N2C3)nc1 (stereo partly drawn) 13.2%
Cc1ccc(-c2ccc3nnc(CNC(=O)COc4cccc(C)c4)n3n2)cc1 3.39%
CCOc1ccc(CN2CCN(C/C=C/c3ccccc3OC)CC2CCO)cc1 (stereo not drawn) 7.82%
CC[C@@]1(C(=O)O)C[C@H](C(=O)N(C)CCCO)[C@H](c2ccc(OC)cc2)N1C -9.63%
COc1ccccc1C(=O)N1CCN(c2nccc(Nc3ccccc3Cl)n2)CC1 2.58%
C[C@@]1(O)CCN(Cc2cnc(NCC(=O)O)nc2)C[C@@H]1O 3.51%
COc1nccc(N2CCC(CC(=O)NCCCN3CCCC3=O)CC2)n1 1.41%
O=C(Nc1cccc(-c2ccc(N3CCOCC3)nn2)c1)Nc1ccc(F)cc1F 2.78%
CC(C)C(=O)N1CCN(c2nc3c(s2)CC(C(=O)NCc2ccco2)CC3)CC1 (stereo not drawn) 4.14%
CC(C)CN1C2CCC1CN(C(=O)Nc1ccccc1F)C2 4.74%
O=C(c1ccc2ccccc2n1)N1CCC(n2cc(-c3nc(-c4ccccc4)no3)nn2)C1 (stereo not drawn) -1.75%
COc1ccc(CN2C(=Nc3ccc(Cl)cc3)S[C@H]3[C@@H]2[C@@H](O)[C@H](O)C[C@@H]3C(N)=O)cc1 0.666%
O=C(c1ccn[nH]1)N1CCCCC1c1nc(CCOCC2CCCC2)no1 (stereo not drawn) 17%
O=C1NCCC[C@@H]1NC(=O)[C@H]1CN(C(=O)NC2CCCCC2)CCN1S(=O)(=O)c1ccc(F)cc1 12.8%
COCCN1Cc2nc(-c3ccsc3)ccc2OCC1=O 9.78% [at 57.5 µM]
CN1CCN(Cc2nnc(C(=O)N3CCC[C@@H]3c3ccc(Br)cc3)n2Cc2ccccc2)CC1 10.5%
O=C(O)CCC(=O)N1CCC2(CC1)C(=O)NCN2C(=O)Cc1c[nH]c2ccccc12 -1.84%
N#Cc1cccnc1N1CCN(c2nccc(N3CCCC(O)C3)n2)CC1 (stereo not drawn) 1.11%
O=c1cc(-c2cccnc2)nc(-c2cccc(CN3CCNCC3)c2)[nH]1 32.1%
O=C(NC1CCCC1)NC1CCN(c2nc3ncccc3o2)C1 (stereo not drawn) 41.7% [at 57.5 µM]
O=C(NCc1cccc(F)c1)c1nc2c(o1)CCN(CC1CCCC1)CC2 1.01% [at 57.5 µM]
Cc1ccc(S(=O)(=O)N2CCCC(CNC(=O)c3cccs3)C2)cc1 (stereo not drawn) 2.18%
O=C1CN(Cc2ccc(-c3ccsc3)cc2)CCN1c1cc(Cl)ncn1 9.95%
O=C1CC(c2nc(-c3ccc4nc[nH]c4c3)no2)CN1Cc1cccnc1 (stereo not drawn) 4.49%
CCOC(=O)N1CCN(C(=O)c2sc(C(C)C)nc2C)CC1 10.5%
Cc1cccc(NC(=O)N2CCCC(Cc3noc(-c4cnccn4)n3)C2)c1 (stereo not drawn) -0.269%
CC(C)N1C(=O)C2(CCCC2)C1C(=O)Nc1ccncc1 (stereo not drawn) 5.87%
Cc1n[nH]c(C)c1CNc1cc(C2CC(O)C2)ncn1 (stereo not drawn) -2.08%
CN(Cc1ccc(-n2cccn2)cc1)CC1CCN(CCc2ccc(F)cc2)CC1 -0.832%
CC1(C(=O)Nc2ccccc2F)COCc2cnc(Nc3ccccc3)nc21 (stereo not drawn) 9.93% [at 57.5 µM]
O=[S+]([O-])(c1cccc(C(F)(F)F)c1)N1CC(CNc2cccnc2)C2(CN(c3ccccc3)C2)C1 (stereo not drawn) 13.3%
c1ccc(CN2CCC[C@H]2c2nc(-c3ccnc(N4CCOCC4)c3)no2)nc1 -8.59% [at 57.5 µM]
COc1ccc(CC(=O)N2C[C@@H]3C[C@H](C2)c2c(-c4ccc(NC(C)=O)cc4)ccc(=O)n2C3)cc1 6.04%
COc1ccc(CNC(=O)[C@H]2O[C@H](CCN(C)CCc3ccccc3)CC[C@@H]2O)cc1 0.758% [at 57.5 µM]
Cc1noc(C)c1S(=O)(=O)N1CC(n2cnnc2C2CCCO2)C1 (stereo not drawn) -1.51%
CCN(C(=O)CCC(=O)N1CCC(C)(c2noc(C)n2)CC1)c1ccccc1 -0.293%
Cc1cccc(-c2ocnc2C(=O)N2CC[C@H](CO)[C@H](NC(=O)C3CC3)C2)c1 8.07%
Cc1ccc(-c2cn3c(n2)N(S(C)(=O)=O)CCC3)cc1 1.8%
COc1ccc(Cc2nc3nccc(-c4cc5ccccc5o4)n3n2)cc1 0.203%
COCCn1c(C)cnc1CC1CCN(C(=O)C2CC2)CC1 0.385%
CC(=O)N1CCC(N2C[C@@H]3OCC(=O)N(Cc4ccccn4)[C@@H]3C2)CC1 2.96% [at 57.5 µM]
CN1CC2(CCN(Cc3ccc(-c4ccc(Cl)cc4)o3)C2)OC1=O (stereo not drawn) 30.2%
COc1ccc2nc(C[C@@H]3C[C@@H](C(C)C)[C@H](CNC(=O)NC4CCCCC4)C=C3C)[nH]c2c1 -1.68%
COc1cccc(CCc2ccccc2C(=O)N2CC[C@H](CO)[C@@H](O)C2)c1 0.647%
COc1ccc(Cn2c3c(c(=O)n2Cc2ccccc2)CCN(C(=O)CCc2cccnc2)C3)cc1 -1.23%
Cn1cccc1CN[C@H]1[C@H](O)[C@@H](N2CCCC2)[C@@H]2OC[C@H]1O2 0.388% [at 57.5 µM]
CCOc1cc(C)c(CN2CCCC(O)(CN(C)C)C2)cc1C(C)C (stereo not drawn) -9.93%
COc1ccc(C(=O)N[C@H]2COC[C@H]2Cc2cc(C)no2)c(OC)n1 15.4%
O=C(O)c1ccc(-c2nnc3ccc(NC(=O)C4CCC4)cn23)cc1 21.8%
CC(C)(C)C1CN(Cc2cccs2)C(=O)c2cccnc2O1 (stereo not drawn) 0.186% [at 16.1 µM]
COc1ccc(S(=O)(=O)N2C[C@@H](F)C[C@H]2C(=O)N2CCOCC2)cc1 3.6%
COCC1CN(C(C)=O)CC12CCN(S(=O)(=O)c1ccc(OC)cc1)CC2 (stereo not drawn) 2.14%
CC(=O)NC1CCN(C(=O)Cc2c(C)[nH]c3c(C)ccc(C)c23)C1 (stereo not drawn) -5.09%
O=C(CC1=CCCCC1)NC1CCc2n[nH]c(=O)n2CC1 (stereo not drawn) 11.9%
O=C(NC1CCCCC1)c1cc(-c2ccc(F)cc2)c2nncn2n1 14.1%
CCC(CC)CN1CC2(CCN(C(=O)CCc3nncn3C)CC2)OC1=O -0.564%
CN(Cc1ccc(-c2ccccc2)cc1)C(=O)C1CC1 -1.07% [at 57.5 µM]
C[C@H](C(=O)N1Cc2ccccc2CC2(CCN(Cc3ccncc3)C2)C1)c1ccccc1 (stereo partly drawn) 8.07%
Cc1ccc(-c2noc([C@@H]3CCCN3C(=O)CCCc3ccccc3)n2)cc1 21.9%

Retrieved by compound from above (4):
Activity % (negative = inhibition), inactive:
COc1cccc(CCc2ccccc2C(=O)N2CC[C@H](CO)[C@@H](O)C2)c1 0.647%
Cc1ccc(-c2cn3c(n2)N(S(C)(=O)=O)CCC3)cc1 1.8%
CC(C)CN1C2CCC1CN(C(=O)Nc1ccccc1F)C2 4.74%
CN(Cc1ccc(OC(F)(F)F)cc1)Cc1cccc(C(F)(F)F)c1 60.6%
